From the supplement of paper PMC3682954
Structures can show the parent of a compound that is named as a salt. ± gives the standard deviation of the averaged measurements. Some of the results follow. Single values are uncertain, as repeats are few or missing.

Test system: RAW 264.7
Experiment: HMGB1-induced TNF-alpha production relative to HMGB1-stimulated control; higher = more TNF-alpha secretion (less inhibition)
Settings: stimulus: HMGB1 5 ug/ml, 18 h
[1] = compound concentration: 1 ug/ml

| SMILES | HMGB1-induced TNF-alpha production [1] [%] | HMGB1-induced TNF-alpha production (compound concentration: 3 uM) [%] |
| --- | --- | --- |
| NC[C@@H]1O[C@H](O[C@H]2[C@@H](O)[C@H](O[C@@H]3[C@@H](O)[C@H](N)C[C@H](N)[C@H]3O[C@H]3O[C@H](CO)[C@@H](O)C[C@H]3N)O[C@@H]2CO)[C@H](N)[C@@H](O)[C@@H]1O[C@H]1O[C@H](CO)[C@@H](O)[C@H](O)[C@@H]1O [Lividomycin A sulfate salt] | 81.5 | – |
| COc1ccccc1N1CCN(CCCNc2c(C)c(=O)n(C)c(=O)n2C)CC1 [Urapidil, 5-Methyl-] | – | 99.1 |
| O=C1CC[C@@H](C(=O)N2CSC[C@H]2C(=O)O)N1 | – | 88.6 |
| c1ccc(-c2ccc(C(c3ccccc3)n3ccnc3)cc2)cc1 (stereo not drawn) | – | 94.9 ± 3.8 |
| c1ccc(-c2ccc(C(c3ccccc3)n3ccnc3)cc2)cc1 (stereo not drawn) [Bifonazole] | – | 84.9 ± 21 |
| Oc1c(Cl)cc(Cl)c2cccnc12 [Chloroxine] | – | 97.4 |
| Oc1c(Cl)cc(Cl)c2cccnc12 | – | 127 |
| CC(C)NCC(O)COc1ccc(CC(N)=O)cc1 (stereo not drawn) | – | 83.6 |
| CC(C)NCC(O)COc1ccc(CC(N)=O)cc1 (stereo not drawn) [Atenolol] | – | 95.8 |
| CNCCc1cnc(CCC(c2ccccc2)c2ccccc2)[nH]1 [N-Methylhistaprodifen dioxalate salt] | – | 78.6 |
| NC(Cn1ccc(=O)c(O)c1)C(=O)O (stereo not drawn) | – | 103 |
| O=C1c2c(O)cc(O)cc2O[C@H](c2ccc(O)c(O)c2)[C@H]1O (racemic) [(±)-Taxifolin] | – | 103 |
| C=C1C(=O)O[C@@H]2C[C@@]3(C)CCCC(=C)[C@@H]3C[C@H]12 [Isoalantolactone] | 32.1 | – |
| CN1CCN(CC(=O)N2c3ccccc3C(=O)Nc3cccnc32)CC1 [Pirenzepine] | – | 100 |
| CN1CCN(CC(=O)N2c3ccccc3C(=O)Nc3cccnc32)CC1 | – | 94.8 |
| CN1CCN(CC(=O)N2c3ccccc3C(=O)Nc3cccnc32)CC1 [Pirenzepine dihydrochloride] | – | 80.6 ± 32 |
| CN(CCCCCCCCCCN(C)C(=O)Oc1cccc([N+](C)(C)C)c1)C(=O)Oc1cccc([N+](C)(C)C)c1 [Demecarium bromide] | – | 115 |
| COc1ccccc1-c1cc(=O)c2c(OC)cccc2o1 [2',5-Dimethoxyflavone] | 95 | – |
| CC(=O)N(CC(O)CO)c1c(I)c(C(=O)NCC(O)CO)c(I)c(C(=O)NCC(O)CO)c1I (stereo not drawn) [Iohexol] | – | 64.3 |
| COC(=O)Nc1nc2cc(Sc3ccccc3)ccc2[nH]1 | – | 111 |
| COC(=O)Nc1nc2cc(Sc3ccccc3)ccc2[nH]1 [Fenbendazole] | – | 83.5 ± 23 |

3 entries from above, set out differently:
SMILES | HMGB1-induced TNF-alpha production [1] [%] | HMGB1-induced TNF-alpha production (compound concentration: 3 uM) [%]
NC[C@@H]1O[C@H](O[C@H]2[C@@H](O)[C@H](O[C@@H]3[C@@H](O)[C@H](N)C[C@H](N)[C@H]3O[C@H]3O[C@H](CO)[C@@H](O)C[C@H]3N)O[C@@H]2CO)[C@H](N)[C@@H](O)[C@@H]1O[C@H]1O[C@H](CO)[C@@H](O)[C@H](O)[C@@H]1O [Lividomycin A sulfate salt] | 81.5 | –
COc1ccccc1N1CCN(CCCNc2c(C)c(=O)n(C)c(=O)n2C)CC1 [Urapidil, 5-Methyl-] | – | 99.1
O=C1CC[C@@H](C(=O)N2CSC[C@H]2C(=O)O)N1 | – | 88.6

Additional entries

| SMILES | HMGB1-induced TNF-alpha production [1] [%] | HMGB1-induced TNF-alpha production (compound concentration: 3 uM) [%] |
| --- | --- | --- |
| Cn1c(=O)c2c(ncn2CC2OCCO2)n(C)c1=O [Doxofylline] | – | 78.3 ± 29 |
| CCN(CC)C(C)CN1c2ccccc2Sc2ccccc21 (stereo not drawn) | – | 81.4 |
| CCN(CC)C(C)CN1c2ccccc2Sc2ccccc21 (stereo not drawn) [Ethopropazine hydrochloride] | – | 110 ± 3.3 |
| CCCNC(=O)NS(=O)(=O)c1ccc(Cl)cc1 | – | 84.6 |
| CCCNC(=O)NS(=O)(=O)c1ccc(Cl)cc1 [Chlorpropamide] | – | 84.8 ± 0.93 |
| CC(=O)O[C@]1(C(C)=O)CC[C@H]2[C@@H]3C=C(Cl)C4=CC(=O)CC[C@]4(C)[C@H]3CC[C@@]21C [Chlormadinone Acetate] | – | 82.7 |
| CC(=O)O[C@]1(C(C)=O)CC[C@H]2[C@@H]3C=C(Cl)C4=CC(=O)CC[C@]4(C)[C@H]3CC[C@@]21C [Chlormadinone acetate] | 72.1 | 85 |
| CC(=O)O[C@]1(C(C)=O)CC[C@H]2[C@@H]3C=C(Cl)C4=CC(=O)CC[C@]4(C)[C@H]3CC[C@@]21C | – | 84.5 |
| Nc1ccn([C@H]2C[C@H](O)[C@@H](CO)O2)c(=O)n1 [2'-Deoxycytidine hydrochloride] | 72.4 | – |
| Nc1ccn([C@H]2C[C@H](O)[C@@H](CO)O2)c(=O)n1 [2'-Deoxycytidine monohydrate] | 66.8 | – |
| N=C(N)NCCCCNC(=N)N [Arcaine sulfate] | – | 96.6 |
| Cc1ncc(CO)c(C=O)c1O [Pyridoxal hydrochloride] | 68 | – |
| CO[C@H]1/C=C/O[C@@]2(C)Oc3c(C)c(O)c4c(O)c(c5c(nc6cc(C)ccn65)c4c3C2=O)NC(=O)/C(C)=C\C=C\[C@H](C)[C@H](O)[C@@H](C)[C@@H](O)[C@@H](C)[C@H](OC(C)=O)[C@@H]1C | – | 94.9 ± 15 |
| CO[C@H]1/C=C/O[C@@]2(C)Oc3c(C)c(O)c4c(O)c(c5c(nc6cc(C)ccn65)c4c3C2=O)NC(=O)/C(C)=C\C=C\[C@H](C)[C@H](O)[C@@H](C)[C@@H](O)[C@@H](C)[C@H](OC(C)=O)[C@@H]1C [Rifaximin] | – | 92.9 |
| Clc1cccc(Cl)c1NC1=NCCN1 [Clonidine hydrochloride] | – | 77.01 ± 0.17 |
| Clc1cccc(Cl)c1NC1=NCCN1 [Clonidine HCl] | – | 95.4 |
| CN(C)S(=O)(=O)c1ccc2c(c1)/C(=C/c1cc3c([nH]1)CCCC3)C(=O)N2 | – | 65.8 |
| CN1CCN(C2Cc3ccccc3Sc3ccc(Cl)cc32)CC1 (racemic) [(±)-Octoclothepin maleate] | – | 98.5 |
| O=C1[C@H]2CCCC[C@H]2C(=O)N1CCCCN1CCN(c2nsc3ccccc23)CC1 | – | 106 |
| Cc1c(N=CC(O)CN2CC3CC(C2)c2cccc(=O)n2C3)c(=O)n(-c2ccccc2)n1C (stereo not drawn) | 79.8 | – |
| Nc1nc2c(ncn2COC(CO)CO)c(=O)[nH]1 [Ganciclovir] | – | 98.6 ± 12 |
